In patent US8716703B2, “Organic semiconductor transistor” (Fuji Xerox Co., Ltd., priority 2011, dated 2014):

Assay: Evaluation of charge mobility of the organic semiconductor transistor (saturation region of current-voltage characteristics)
Settings: for Charge mobility Immediately after production: transistor immediately after production; for Charge mobility One month after production: transistor stored at 25° C., after a lapse of one month

SMILES | Charge mobility Immediately after production | Charge mobility One month after production
CCCCCCCCc1ccc(-c2ccc(-c3ccc4c(c3)C(C)(C)c3cc(CCCCCC)ccc3-4)s2)cc1 [Exemplary compound 20] | 8.83 × 10^−4 cm^2/Vs | 6.17 × 10^−4 cm^2/Vs
CCCCCCCCc1ccc(-c2ccc(-c3ccc(-c4ccc5c(c4)C(C)(C)c4cc(CCCCCC)ccc4-5)s3)s2)cc1 [Exemplary compound 21] | 9.58 × 10^−4 cm^2/Vs | 5.45 × 10^−4 cm^2/Vs
CCCCCCCCc1ccc(-c2ccc(-c3ccc(-c4ccc(-c5ccc6c(c5)C(CCCCCC)(CCCCCC)c5cc(CCCCCC)ccc5-6)s4)s3)s2)cc1 [Exemplary compound 28] | 2.15 × 10^−3 cm^2/Vs | 7.58 × 10^−4 cm^2/Vs
CCCCCCCCCCc1ccc(-c2ccc(-c3ccc4c(c3)C(C)(C)c3cc(CCCCCC)ccc3-4)s2)cc1 [Exemplary compound 32] | 8.98 × 10^−4 cm^2/Vs | 5.85 × 10^−4 cm^2/Vs
CCCCCCCCCCc1ccc2c(c1)C(C)(C)c1cc(-c3ccc(-c4ccc(CCCCCCCC)cc4)s3)ccc1-2 [Exemplary compound 34] | 8.28 × 10^−4 cm^2/Vs | 5.59 × 10^−4 cm^2/Vs
CC(=O)N1C2c3cc4ccccc4cc3C(c3cc4ccccc4cc32)[S+]1[O-] (stereo not shown) [compound 1, 13,6-N-sulfinylacetamidopentacene, reference compound] | 7.5 × 10^−4 cm^2/Vs | Not measurable
CC1(C)c2cc(-c3ccc(-c4cccs4)s3)ccc2-c2ccc(-c3ccc(-c4cccs4)s3)cc21 [compound 3, reference compound] | 3.5 × 10^−4 cm^2/Vs | 8.5 × 10^−7 cm^2/Vs
CC1(C)c2ccccc2-c2ccc(-c3ccc(-c4cccs4)s3)cc21 [compound 4, reference compound] | 2.5 × 10^−4 cm^2/Vs | Not measurable
